Data on 3 substances can be found in PMC7925690, “A molecular switch in sulfur metabolism to reduce arsenic and enrich selenium in rice grain” (Nature Communications, 2021).

Chains of the proteins cited; added tags and fusions are not shown. Lines headed by an entry give the natural chain unless they say otherwise; changes in a name come on top.
UniProt P47998: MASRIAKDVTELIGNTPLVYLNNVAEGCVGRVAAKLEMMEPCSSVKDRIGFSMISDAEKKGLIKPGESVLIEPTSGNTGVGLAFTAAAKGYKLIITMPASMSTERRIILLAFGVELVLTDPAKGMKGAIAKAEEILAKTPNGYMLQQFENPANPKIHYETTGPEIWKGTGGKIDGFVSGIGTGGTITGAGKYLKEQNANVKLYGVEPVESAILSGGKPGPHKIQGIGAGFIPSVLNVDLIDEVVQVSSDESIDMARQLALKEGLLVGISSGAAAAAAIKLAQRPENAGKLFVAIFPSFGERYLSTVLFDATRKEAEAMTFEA

Results are given in words; binding and its absence hold for the method and conditions named. In cells and extracts the contact can be indirect. Some results given as binding are weak or reduced against the parent protein; the word gives no strength. Tags and fused reporters may be left off the sequences shown.

Assay [1] addresses T1, His-AtSAT5 (Arabidopsis thaliana) (UniProt Q42538).
T1 sequence: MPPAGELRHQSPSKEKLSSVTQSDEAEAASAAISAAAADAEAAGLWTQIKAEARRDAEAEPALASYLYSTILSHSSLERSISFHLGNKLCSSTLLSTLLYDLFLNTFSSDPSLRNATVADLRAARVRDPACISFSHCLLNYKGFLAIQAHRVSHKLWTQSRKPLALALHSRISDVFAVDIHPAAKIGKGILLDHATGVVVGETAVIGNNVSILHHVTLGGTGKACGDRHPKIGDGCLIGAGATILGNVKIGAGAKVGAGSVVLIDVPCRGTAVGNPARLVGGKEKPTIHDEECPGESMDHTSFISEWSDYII
Put plainly: pull-down; His-AtSAT5 held on a NiCl2 HiTrap Chelating column, washed with Buffer W (50 mM Tris-HCl pH 8.0, 250 mM NaCl, 80 mM imidazol) and with 10 mM OAS; crude extract of untagged OAS-TL loaded; elution with Buffer W + 10 mM OAS, then 400 mM imidazol; SDS-PAGE, Coomassie; only the target ….

Assay [2] concerns the target T1, His-AtSAT5 (Arabidopsis thaliana). The assay is described as above. The source holds these as a separate data set.
Assay [3] has the same target. Put plainly: pull-down; His-AtSAT5 held on Ni-NTA packed columns, S-tagged OAS-TL loaded; washing buffer 50 mM Tris-HCl pH 8.0, 250 mM NaCl, 20 mM imidazol; OAS elution (10 mM) and final elution; immunoblot with anti-S-tag and anti-His; only the target purified. (In general: In western blotting, separated proteins are transferred to a membrane and probed.)

Regarding “AtOAS-TL A (untagged) (from UniProt P47998 1-322) (enzyme)”, the binding entry in assay [1] is reported as “binds”; in assay [2] it was “no binding (condition: with 10 mM OAS)”. As for “AtOAS-TL A^S102N (untagged) (from UniProt P47998 1-322) (enzyme)”, the binding entry in assay [1] is on record as “binds”. In the case of “S-tag-AtOAS-TL A^S102N (from UniProt P47998 1-322) (enzyme)”, the binding result in assay [3] is listed as “binds”.
